# Patent publication US6350430B1 (Lion Bioscience Science AG, priority 1997, dated 2002)
# Experiment: Boc solid-phase peptide synthesis; MBHA; 0.2 M HOBt and 0.2 M DIC
# Conditions: whole synthesis, scale of the general procedure 100 mg MBHA resin
substance,measurement,value
PEPTIDE1{[ac].[Nle].Q.H.[pI-D-Phe].R.[dW].G.[am]}$$$$V2.0,purity (crude or final not stated),approximately 80 to 90% pure

# HELM strings list residues between dots; [ac] is acetyl, [am] amide, other brackets name non-standard units.
